Values from PubChem BioAssay AID504786 (Drosophila RNAi Screening Center, 2011)

Aim: 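Positive regulators of HIF-driven reporter output in Drosophila cells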 (primary screen)
Cells: Drosophila S2 cells with a stable HIF luciferase reporter
Knock-down reagent: long dsRNA against Drosophila genes, about 0.2 µg dsRNA per well of a 384-well plate
Timing: three days of knock-down, then 20 h of DFO before reading
Conditions: desferrioxamine (DFO) at 100 µM, an iron chelator that mimics hypoxia, for 20 h
Measurement: 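Firefly luciferase driven by the mouse ldh-a hypoxia-response element, measured after 20 h of 100 µM DFO; z-scores per plate, higher means more signal lost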
Scale: z-score: higher = stronger loss of HIF reporter signal
In all, the deposit lists about 21,000 reagents; shown is a random part of those with a known target gene and a result. 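Primary screen; positive scores mean lost reporter signal, so the sign may be inverted from the usual convention.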 The numbers tell different reagents against one gene apart. No sequences are given here.

| predicted target | dsRNA no. | z-score, replicate 1 | z-score, replicate 2 |
| --- | --- | --- | --- |
| CG2964 | 1 | 0.2 | 0.5 |
| APC4 | 1 | -0.3 | 0 |
| spidey | 1 | -0.1 | 0 |
| cbc | 1 | 0.3 | 0.4 |
| NELF-B | 1 | -0.6 | -1.3 |
| CG17754 | 1 | -0.4 | -0.1 |
| CG6650 | 1 | -0.4 | -0.2 |
| CG30043 | 1 | -0.5 | -0.3 |
| bam | 1 | -0.4 | 0.5 |
| CG14883 | 1 | -0.1 | -0.3 |
| CG6195 | 1 | -0.3 | -0.2 |
| CG12071 | 1 | 2.8 | 0.5 |
| ACXC | 1 | -0.2 | -0.2 |
| CG30395 | 1 | 0.8 | -0.1 |
| mthl8 | 1 | 0 | -0.1 |
| mthl8 | 2 | -0.4 | -0.2 |
| CG17760 | 1 | -0.4 | -0.2 |
| CG32454 | 1 | -0.3 | -0.5 |
| CG4367 | 1 | -0.5 | -0.4 |
| Brca2 | 1 | -0.3 | -0.4 |
| Brca2 | 2 | -0.3 | -0.4 |
| CG5877 | 1 | -0.3 | -0.5 |
| Rtnl1 | 1 | -0.4 | -0.3 |
| Rtnl1 | 2 | -0.3 | -0.2 |
| Rtnl1 | 3 | -0.4 | -0.4 |
| CG4661 | 1 | -0.2 | 0.7 |
| ihog | 1 | -0.3 | -0.7 |
| CG7656 | 1 | -0.3 | -0.4 |
| fzr2 | 1 | -0.1 | -0.5 |
| Spindly | 1 | 0.3 | 1 |
| CG14383 | 1 | -0.2 | 0.2 |
| Picot | 1 | -0.1 | 0.1 |
| CG31125 | 1 | -0.3 | -0.3 |
| TwdlG | 1 | -0.2 | -0.3 |

Laid out differently: 3 of the entries above
predicted target,dsRNA no.,"z-score, replicate 1","z-score, replicate 2"
CG6650,1,-0.4,-0.2
CG30043,1,-0.5,-0.3
bam,1,-0.4,0.5
